Measurements from PubChem BioAssay AID330 (DTP/NCI, 2004).
The list is a part of this screen's results and no random one: it gathers tests that were run many times, whatever their T/C, doses with no T/C, and many T/C values between a quarter and a half above the control. Other doses and runs of a compound stand elsewhere. T/C: endpoint of the treated group in % of that of the vehicle group. Some entries give survivors of the animals treated and no T/C: the source holds a T/C of zero for them, seemingly a mark for toxic or unscored doses. Some survivor counts are full or nearly so, which does not show that the dose was tolerated: survival well below the control is almost never listed, so the zero probably covers shortened survival too. Counts of survivors are from the toxicity check (mostly the fifth day) where no day follows; animals may have died later. Schedule codes are those of the source, read here as Q, the interval in days (D) or hours (H), X, the number of doses. Some entries were tested several times; the results are listed from low to high. For survival time, the PubChem record calls one and a half times the control and up active, and a quarter to a half above the control has no call in these data; cut-offs in other NCI protocols can differ.

Tested on: P388 leukemia ip, CD2F1 mice, survival T/C
Assay: NCI In Vivo Anticancer Drug Screen. Data for tumor model P388 Leukemia (intraperitoneal) in CD2F1 (CDF1) mice
Details: T/C endpoint: median survival time, higher T/C = longer survival
[1] = dose: 200.0 mg/kg/injection, schedule: Q04DX003 (ip), vehicle: Klucel (hydroxypropylcellulose) (HPC)
[2] = dose: 100.0 mg/kg/injection, schedule: Q01DX005 (ip), vehicle: Klucel (hydroxypropylcellulose) (HPC)
[3] = dose: 50.0 mg/kg/injection, schedule: Q01DX005 (ip), vehicle: Klucel (hydroxypropylcellulose) (HPC)
[4] = dose: 200.0 mg/kg/injection, schedule: Q01DX005 (ip), vehicle: Klucel (hydroxypropylcellulose) (HPC)
[5] = dose: 50.0 mg/kg/injection, schedule: Q01DX009 (ip), vehicle: Klucel (hydroxypropylcellulose) (HPC)
[6] = dose: 100.0 mg/kg/injection, schedule: Q01DX009 (ip), vehicle: Klucel (hydroxypropylcellulose) (HPC)
[7] = dose: 200.0 mg/kg/injection, schedule: Q01DX009 (ip), vehicle: Klucel (hydroxypropylcellulose) (HPC)
[8] = dose: 240.0 mg/kg/injection, schedule: Q01DX005 (ip), vehicle: saline
[9] = dose: 200.0 mg/kg/injection, schedule: Q01DX001 (ip), vehicle: saline with Tween-80
[10] = dose: 400.0 mg/kg/injection, schedule: Q01DX001 (ip), vehicle: saline with Tween-80

In the case of `Nc1nc(N)c(-c2ccc(Cl)c(Cl)c2)c(COc2cccc(CNC(=O)c3cccc(S(=O)(=O)F)c3)c2)n1`, the T/C [1] is reported as 125 % of control.
With `CCCCn1c(CCC)nc([N+](=O)[O-])c1Sc1ncn[nH]1` the T/C [2] was 125 % of control.
In the case of `N#CC1=C2CCCCC2(O)NC1=O` (stereo unspecified), the survivor count (dose: 25.0 mg/kg/injection, schedule: Q01DX005 (ip), vehicle: Klucel (hydroxypropylcellulose) (HPC)) is reported as 2 of 5, the survivor count [3] is reported as 2 of 5 and the survivor count [2] is reported as 0 of 5. The survivor count [4] was 0 of 5.
In the case of `CC(C)CCC1=CC(=O)C(CCC(C)C)=CC1=O`, the survivor count (dose: 25.0 mg/kg/injection, schedule: Q01DX009 (ip), vehicle: saline with Tween-80) is reported as 6 of 6, the survivor count (dose: 50.0 mg/kg/injection, schedule: Q01DX009 (ip), vehicle: saline with Tween-80) is reported as 3 of 6 and the survivor count (dose: 100.0 mg/kg/injection, schedule: Q01DX009 (ip), vehicle: saline with Tween-80) is reported as 1 of 6. For the same compound, the survivor count (dose: 200.0 mg/kg/injection, schedule: Q01DX009 (ip), vehicle: saline with Tween-80) was 0 of 6.
With `CCCCN(CCCC)C1CCC(Nc2ccnc3cc(Cl)ccc23)CC1` (stereo unspecified) the survivor count [4] was 6 of 6.
`COc1cccc2c1C(=O)c1c(O)c3c(c(O)c1C2=O)CC(O)(/C(C)=N/NC(=O)CCCCCCCCC(=O)N/N=C(\C)C1(O)Cc2c(O)c4c(c(O)c2C(OC2CC(N)C(O)C(C)O2)C1)C(=O)c1c(OC)cccc1C4=O)CC3OC1CC(N)C(O)C(C)O1` (stereo unspecified) was tested, and the survivor count (dose: 50.0 mg/kg/injection, schedule: Q01DX009 (ip), vehicle: water) was 3 of 3.
In the case of `CCCCCCCCCCCCO[P+](=O)OCCCCCCCCCCCC`, the T/C (dose: 200.0 mg/kg/injection, schedule: Q01DX009 (ip), vehicle: saline sonified) is reported as 125 % of control.
For `Nc1ccc(-c2csc(-c3ccccc3)n2)c(Cl)c1`, the T/C [5] was 128 % of control, the survivor count [6] was 5 of 6 and 6 of 6 and the survivor count [7] was 0 of 6.
With `C/C(=N\O)c1cc(Br)cc([N+](=O)[O-])c1O` the survivor count [4] was 1 of 6.
With `O=C(OCCO)c1c(Cl)c(Cl)c(Cl)c(Cl)c1-c1c2cc(Br)c(=O)c(Br)c-2oc2c(Br)c(O)c(Br)cc12` the survivor count [8] was 3 of 6.
`CC(C)(C)N=C(CCNC1CCCCC1)Nc1cccc(C(F)(F)F)c1` was tested, and the survivor count [9] was 3 of 6 and the survivor count [10] was 0 of 6.
`OC(CCl)Cn1nnc2c3ccccc3ccc21` (stereo unspecified) was tested, and the survivor count (dose: 400.0 mg/kg/injection, schedule: Q04DX003 (ip), vehicle: saline with Tween-80) was 3 of 6.
In the case of `COc1cc2c3c(c1OC)C(=O)C[C@@H]1CCCN(CC2)[C@H]31`, the survivor count [3] is reported as 0 of 6, the survivor count [2] is reported as 0 of 6 and the survivor count [4] is reported as 0 of 6.
With `CC1=CC(=O)[C@@H](O)[C@]2(C)[C@H]3[C@@]4(O)OC[C@]35[C@H]([C@@H](C)[C@H]4O)[C@@H](O)C(=O)O[C@@H]5C[C@@H]12` the survivor count (dose: 50.0 mg/kg/injection, schedule: Q01DX009 (ip), vehicle: saline) was 3 of 6.
With `Cc1c2ccncc2c(C)c2c1[nH]c1cc(O)ccc12` the T/C (dose: 12.5 mg/kg/injection, schedule: Q04DX003 (ip), vehicle: distilled water + Tween-80) was 126 % of control, the T/C (dose: 25.0 mg/kg/injection, schedule: Q04DX003 (ip), vehicle: distilled water + Tween-80) was 125 and 133 % of control and the T/C (dose: 50.0 mg/kg/injection, schedule: Q04DX003 (ip), vehicle: distilled water + Tween-80) was 134 and 145 % of control.
For `CO[C@H]1/C=C/O[C@@]2(C)Oc3c(C)c(O)c4c(O)c(c(/C=N/N5CCN(C)CC5)c(O)c4c3C2=O)NC(=O)/C(C)=C\C=C\[C@H](C)[C@H](O)[C@@H](C)[C@@H](O)[C@@H](C)[C@H](OC(C)=O)[C@@H]1C`, the survivor count (dose: 200.0 mg/kg/injection, schedule: Q04DX003 (ip), vehicle: other) was 6 of 6, the survivor count (dose: 400.0 mg/kg/injection, schedule: Q01DX009 (ip), vehicle: other) was 2 of 6 and the survivor count (dose: 400.0 mg/kg/injection, schedule: Q04DX003 (ip), vehicle: distilled water + Tween-80) was 3 of 6. For the same compound, the survivor count (dose: 400.0 mg/kg/injection, schedule: Q04DX003 (ip), vehicle: other) was 0 of 3 and 4 of 6.
For `O=NN(C(=O)NCCCl)c1[nH]c(=O)ncc1Cl`, the survivor count [4] was 0 of 6.
`CC[C@@H]1C[C@H]2CN(CCc3c([nH]c4ccccc34)[C@@](C(=O)OC)(c3cc4c(cc3OC)N(C)[C@H]3[C@@](O)(C(=O)OC)[C@H](OC(C)=O)[C@]5(CC)CCCN6CC[C@]43[C@@H]65)C2)C1` was tested, and the T/C (dose: 0.5 mg/kg/injection, schedule: Q01DX009 (ip), vehicle: saline with Tween-80) was 129 % of control, the T/C (dose: 1.0 mg/kg/injection, schedule: Q01DX009 (ip), vehicle: saline with Tween-80) was 138 % of control and the T/C (dose: 1.0 mg/kg/injection, schedule: Q01DX009 (ip), vehicle: water) was 125 and 135 % of control. For the same compound, the T/C (dose: 2.0 mg/kg/injection, schedule: Q01DX009 (ip), vehicle: water) was 133 and 141 % of control and the T/C (dose: 4.0 mg/kg/injection, schedule: Q01DX009 (ip), vehicle: water) was 132 % of control.
In the case of `CC1CCC2(NC1)OC1CC3C4CCC5CC(OC6OC(CO)C(OC7OC(CO)C(O)C(OC8OCC(O)C(O)C8O)C7OC7OC(CO)C(O)C(O)C7O)C(O)C6O)CCC5(C)C4CCC3(C)C1C2C` (stereo unspecified), the survivor count (dose: 25.0 mg/kg/injection, schedule: Q04DX003 (ip), vehicle: Klucel (hydroxypropylcellulose) (HPC)) is reported as 6 of 6, the survivor count (dose: 100.0 mg/kg/injection, schedule: Q04DX003 (ip), vehicle: Klucel (hydroxypropylcellulose) (HPC)) is reported as 0 of 6 and the survivor count [1] is reported as 0 of 6. The survivor count (dose: 400.0 mg/kg/injection, schedule: Q04DX003 (ip), vehicle: Klucel (hydroxypropylcellulose) (HPC)) was 0 of 6.
With `N#CC12C3C4C5C3C1C(C42)n1c(=O)n(-c2ccccc2)c(=O)n15` (stereo unspecified) the T/C [5] was 147 % of control.
For `CNC(=O)OCc1c(COC(=O)NC)c(-c2ccc(Cl)c(Cl)c2)n2c1CCC2`, the T/C (dose: 12.5 mg/kg/injection, schedule: Q01DX009 (ip), vehicle: Klucel (hydroxypropylcellulose) (HPC)) was 136 % of control, the T/C (dose: 25.0 mg/kg/injection, schedule: Q01DX009 (ip), vehicle: Klucel (hydroxypropylcellulose) (HPC)) was 149 % of control and the survivor count [5] was 6 of 6. The survivor count [6] was 6 of 6 and the survivor count [7] was 4 of 6.
In the case of `OCC1(OC2OC(CF)C(O)C(O)C2O)OC(CF)C(O)C1O` (stereo unspecified), the survivor count [8] is reported as 2 of 6.
`Cc1ccc(N=Nc2c(-c3ccccc3)nn(C(=S)S)c2-c2ccccc2)cc1` was tested, and the survivor count (dose: 100.0 mg/kg/injection, schedule: Q04DX002 (ip), vehicle: Klucel (hydroxypropylcellulose) (HPC)) was 5 of 5 and the survivor count (dose: 400.0 mg/kg/injection, schedule: Q04DX002 (ip), vehicle: Klucel (hydroxypropylcellulose) (HPC)) was 5 of 5.
For `N#CSc1ccc2nc(N)sc2c1`, the survivor count [5] was 6 of 6, the survivor count [6] was 0 of 6 and the survivor count [7] was 0 of 6.
`O=[N+]([O-])c1ccc(N2CCN(CCO)CC2)c2c1no[n+]2[O-]` was tested, and the survivor count (dose: 7.5 mg/kg/injection, schedule: Q01DX009 (ip), vehicle: saline) was 6 of 6, the survivor count (dose: 100.0 mg/kg/injection, schedule: Q01DX009 (ip), vehicle: suspension in saline) was 5 of 6 and the survivor count (dose: 200.0 mg/kg/injection, schedule: Q01DX009 (ip), vehicle: suspension in saline) was 0 of 6.
`C=C(C#N)CCl` was tested, and the survivor count (dose: 100.0 mg/kg/injection, schedule: Q01DX001 (ip), vehicle: saline with Tween-80) was 1 of 6 and 1 of 3, the survivor count [9] was 0 of 6 and the survivor count [10] was 0 of 6.
In the case of `O=C1C2C3C=CC(C3)C2C(=O)N1CNc1ccc2nc(SC3CCCC3)sc2c1` (stereo unspecified), the survivor count [7] is reported as 6 of 6.
For `CN(C)CCC(=O)c1ccc(Cl)cc1`, the survivor count (dose: 200.0 mg/kg/injection, schedule: Q01DX009 (ip), vehicle: saline) was 1 of 6.
For `Nc1oc([N+](=O)[O-])cc1[N+](=O)[O-]`, the survivor count (dose: 400.0 mg/kg/injection, schedule: Q01DX009 (ip), vehicle: saline) was 1 of 6.
`O/N=C/c1c(Cl)nc2sccn12` was tested, and the survivor count (dose: 400.0 mg/kg/injection, schedule: Q01DX001 (ip), vehicle: Klucel (hydroxypropylcellulose) (HPC)) was 1 of 6.
With `CC1(C)C=Cc2c(ccc3c(=O)c(-c4ccc5c(c4)OCO5)coc23)O1` the survivor count (dose: 200.0 mg/kg/injection, schedule: Q04DX002 (ip), vehicle: saline with Tween-80) was 6 of 6 and the survivor count (dose: 400.0 mg/kg/injection, schedule: Q04DX002 (ip), vehicle: saline with Tween-80) was 6 of 6.
